From the supplement of paper PMC7661543
The effect of the compound repeats well; differences between the knockouts mostly do not.

Test system: HCC-38
Assay: relative cell number vs DMSO control (72 h) (% of DMSO); higher = less growth inhibition (more cells)
Experimental: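 QMAP-Seq: a pool of 5 breast cancer cell lines (ZR-75-1, SKBR3, HCC-38, MDA-MB-231, BT-20), each carrying 12 doxycycline-inducible Cas9 sgRNA perturbations (11 knockouts plus non-targeting sgNT), was treated with compounds for 72 h at four 10-fold doses (10 nM-10 uM or 1 nM-1 uM range). Barcodes were amplified and sequenced, and cell number was interpolated from 293T spike-in standard curves. The result is expressed as % of the median of DMSO wells. Two biological replicates.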

CC(C)CC(=O)Nc1n[nH]c2c1CN(C(=O)C1CCN(C)CC1)C2(C)C
Settings	relative cell number
sgRNA knockout: sgATF3, 10 nM	109
sgRNA knockout: sgATF3, 100 nM	78
sgRNA knockout: sgATF3, 1000 nM	44
sgRNA knockout: sgATF3, 10000 nM	21.8
sgRNA knockout: sgATF4, 10 nM	115.7
sgRNA knockout: sgATF4, 100 nM	81.2
sgRNA knockout: sgATF4, 1000 nM	40.5
sgRNA knockout: sgATF4, 10000 nM	20.2
sgRNA knockout: sgATF6, 10 nM	111
sgRNA knockout: sgATF6, 100 nM	82.6
sgRNA knockout: sgATF6, 1000 nM	47.5
sgRNA knockout: sgATF6, 10000 nM	19.7
sgRNA knockout: sgATG7, 10 nM	112
sgRNA knockout: sgATG7, 100 nM	68.9
sgRNA knockout: sgATG7, 1000 nM	42
sgRNA knockout: sgATG7, 10000 nM	16.2
sgRNA knockout: sgERN1, 10 nM	129
sgRNA knockout: sgERN1, 100 nM	76
sgRNA knockout: sgERN1, 1000 nM	43.1
sgRNA knockout: sgERN1, 10000 nM	18.8
sgRNA knockout: sgHSF1, 10 nM	119
sgRNA knockout: sgHSF1, 100 nM	94.3
sgRNA knockout: sgHSF1, 1000 nM	40.7
sgRNA knockout: sgHSF1, 10000 nM	22.2
sgRNA knockout: sgHSF2, 10 nM	130
sgRNA knockout: sgHSF2, 100 nM	87.5
sgRNA knockout: sgHSF2, 1000 nM	44.5
sgRNA knockout: sgHSF2, 10000 nM	20.2
sgRNA knockout: sgKEAP1, 10 nM	134
sgRNA knockout: sgKEAP1, 100 nM	93.2
sgRNA knockout: sgKEAP1, 1000 nM	53.1
sgRNA knockout: sgKEAP1, 10000 nM	26.3
sgRNA knockout: sgNFE2L2, 10 nM	110
sgRNA knockout: sgNFE2L2, 100 nM	77.99
sgRNA knockout: sgNFE2L2, 1000 nM	42.3
sgRNA knockout: sgNFE2L2, 10000 nM	22.2
sgRNA knockout: sgSLC35F2, 10 nM	113
sgRNA knockout: sgSLC35F2, 100 nM	76.7
sgRNA knockout: sgSLC35F2, 1000 nM	42
sgRNA knockout: sgSLC35F2, 10000 nM	20.3
sgRNA knockout: sgXBP1, 10 nM	113
sgRNA knockout: sgXBP1, 100 nM	84.2
sgRNA knockout: sgXBP1, 1000 nM	45.8
sgRNA knockout: sgXBP1, 10000 nM	22.1

Cc1c(Cn2c(C)nc3c(C(=O)O)cc(N4CCOCC4)cc32)cccc1C(F)(F)F
Settings	relative cell number
sgRNA knockout: sgATF3, 10 nM	106.8
sgRNA knockout: sgATF3, 100 nM	88.8
sgRNA knockout: sgATF3, 1000 nM	106
sgRNA knockout: sgATF3, 10000 nM	117
sgRNA knockout: sgATF4, 10 nM	99.4
sgRNA knockout: sgATF4, 100 nM	81.8
sgRNA knockout: sgATF4, 1000 nM	115
sgRNA knockout: sgATF4, 10000 nM	96.8
sgRNA knockout: sgATF6, 10 nM	107
sgRNA knockout: sgATF6, 100 nM	113
sgRNA knockout: sgATF6, 1000 nM	98.4
sgRNA knockout: sgATF6, 10000 nM	88.5
sgRNA knockout: sgATG7, 10 nM	102
sgRNA knockout: sgATG7, 100 nM	86
sgRNA knockout: sgATG7, 1000 nM	111
sgRNA knockout: sgATG7, 10000 nM	101
sgRNA knockout: sgERN1, 10 nM	93.2
sgRNA knockout: sgERN1, 100 nM	90.6
sgRNA knockout: sgERN1, 1000 nM	108
sgRNA knockout: sgERN1, 10000 nM	108
sgRNA knockout: sgHSF1, 10 nM	111
sgRNA knockout: sgHSF1, 100 nM	130
sgRNA knockout: sgHSF1, 1000 nM	111
sgRNA knockout: sgHSF1, 10000 nM	111.5
sgRNA knockout: sgHSF2, 10 nM	116
sgRNA knockout: sgHSF2, 100 nM	94.53
sgRNA knockout: sgHSF2, 1000 nM	119
sgRNA knockout: sgHSF2, 10000 nM	113
sgRNA knockout: sgKEAP1, 10 nM	119
sgRNA knockout: sgKEAP1, 100 nM	129
sgRNA knockout: sgKEAP1, 1000 nM	103
sgRNA knockout: sgKEAP1, 10000 nM	125
sgRNA knockout: sgNFE2L2, 10 nM	110
sgRNA knockout: sgNFE2L2, 100 nM	72.9
sgRNA knockout: sgNFE2L2, 1000 nM	112
sgRNA knockout: sgNFE2L2, 10000 nM	103
sgRNA knockout: sgSLC35F2, 10 nM	103
sgRNA knockout: sgSLC35F2, 100 nM	91.5
sgRNA knockout: sgSLC35F2, 1000 nM	105
sgRNA knockout: sgSLC35F2, 10000 nM	106
sgRNA knockout: sgXBP1, 10 nM	116
sgRNA knockout: sgXBP1, 100 nM	83.9
sgRNA knockout: sgXBP1, 1000 nM	119
sgRNA knockout: sgXBP1, 10000 nM	111

Cc1cc(N2CCOCC2)cc2[nH]c(-c3c(NC[C@@H](O)c4cccc(Cl)c4)cc[nH]c3=O)nc12
Settings	relative cell number
sgRNA knockout: sgATF3, 10 nM	94.5
sgRNA knockout: sgATF3, 100 nM	86.5
sgRNA knockout: sgATF3, 1000 nM	89.4
sgRNA knockout: sgATF3, 10000 nM	33.1
sgRNA knockout: sgATF4, 10 nM	94.96
sgRNA knockout: sgATF4, 100 nM	79.8
sgRNA knockout: sgATF4, 1000 nM	95.5
sgRNA knockout: sgATF4, 10000 nM	32.8
sgRNA knockout: sgATF6, 10 nM	103
sgRNA knockout: sgATF6, 100 nM	89.3
sgRNA knockout: sgATF6, 1000 nM	106
sgRNA knockout: sgATF6, 10000 nM	35.7
sgRNA knockout: sgATG7, 10 nM	88.8
sgRNA knockout: sgATG7, 100 nM	90.2
sgRNA knockout: sgATG7, 1000 nM	85.4
sgRNA knockout: sgATG7, 10000 nM	30.9
sgRNA knockout: sgERN1, 10 nM	96
sgRNA knockout: sgERN1, 100 nM	82.7
sgRNA knockout: sgERN1, 1000 nM	90.5
sgRNA knockout: sgERN1, 10000 nM	32.4
sgRNA knockout: sgHSF1, 10 nM	101
sgRNA knockout: sgHSF1, 100 nM	90.7
sgRNA knockout: sgHSF1, 1000 nM	98.5
sgRNA knockout: sgHSF1, 10000 nM	48.1
sgRNA knockout: sgHSF2, 10 nM	96
sgRNA knockout: sgHSF2, 100 nM	86.7
sgRNA knockout: sgHSF2, 1000 nM	92.2
sgRNA knockout: sgHSF2, 10000 nM	36.4
sgRNA knockout: sgKEAP1, 10 nM	118.2
sgRNA knockout: sgKEAP1, 100 nM	90.3
sgRNA knockout: sgKEAP1, 1000 nM	122
sgRNA knockout: sgKEAP1, 10000 nM	36.8
sgRNA knockout: sgNFE2L2, 10 nM	86.8
sgRNA knockout: sgNFE2L2, 100 nM	75.7
sgRNA knockout: sgNFE2L2, 1000 nM	84
sgRNA knockout: sgNFE2L2, 10000 nM	31.8
sgRNA knockout: sgSLC35F2, 10 nM	94.2
sgRNA knockout: sgSLC35F2, 100 nM	82.8
sgRNA knockout: sgSLC35F2, 1000 nM	89.2
sgRNA knockout: sgSLC35F2, 10000 nM	35.6
sgRNA knockout: sgXBP1, 10 nM	90.4
sgRNA knockout: sgXBP1, 100 nM	84
sgRNA knockout: sgXBP1, 1000 nM	87.8
sgRNA knockout: sgXBP1, 10000 nM	33.19

Cc1ccc(C(=O)N(CCCN)[C@@H](c2oc3cc(Cl)ccc3c(=O)c2Cc2ccccc2)C(C)C)cc1
Settings	relative cell number
sgRNA knockout: sgATF3, 10 nM	23.9
sgRNA knockout: sgATF3, 100 nM	26.5
sgRNA knockout: sgATF3, 1000 nM	31.1
sgRNA knockout: sgATF3, 10000 nM	5.74
sgRNA knockout: sgATF4, 10 nM	22.6
sgRNA knockout: sgATF4, 100 nM	24.2
sgRNA knockout: sgATF4, 1000 nM	24.51
sgRNA knockout: sgATF4, 10000 nM	6.15
sgRNA knockout: sgATF6, 10 nM	27.2
sgRNA knockout: sgATF6, 100 nM	29.8
sgRNA knockout: sgATF6, 1000 nM	37.1
sgRNA knockout: sgATF6, 10000 nM	5.55
sgRNA knockout: sgATG7, 10 nM	27.3
sgRNA knockout: sgATG7, 100 nM	29.2
sgRNA knockout: sgATG7, 1000 nM	28.7
sgRNA knockout: sgATG7, 10000 nM	6.27
sgRNA knockout: sgERN1, 10 nM	27.4
sgRNA knockout: sgERN1, 100 nM	25
sgRNA knockout: sgERN1, 1000 nM	26.1
sgRNA knockout: sgERN1, 10000 nM	6.32
sgRNA knockout: sgHSF1, 10 nM	25.3
sgRNA knockout: sgHSF1, 100 nM	21.4
sgRNA knockout: sgHSF1, 1000 nM	33.8
sgRNA knockout: sgHSF1, 10000 nM	3.71
sgRNA knockout: sgHSF2, 10 nM	27.3
sgRNA knockout: sgHSF2, 100 nM	29.5
sgRNA knockout: sgHSF2, 1000 nM	32.2
sgRNA knockout: sgHSF2, 10000 nM	4.62
sgRNA knockout: sgKEAP1, 10 nM	34.8
sgRNA knockout: sgKEAP1, 100 nM	26.7
sgRNA knockout: sgKEAP1, 1000 nM	40.382
sgRNA knockout: sgKEAP1, 10000 nM	5.7
sgRNA knockout: sgNFE2L2, 10 nM	23.1
sgRNA knockout: sgNFE2L2, 100 nM	24.5
sgRNA knockout: sgNFE2L2, 1000 nM	24.5
sgRNA knockout: sgNFE2L2, 10000 nM	4.63
sgRNA knockout: sgSLC35F2, 10 nM	24.3
sgRNA knockout: sgSLC35F2, 100 nM	25.8
sgRNA knockout: sgSLC35F2, 1000 nM	30.5
sgRNA knockout: sgSLC35F2, 10000 nM	4.51
sgRNA knockout: sgXBP1, 10 nM	25.9
sgRNA knockout: sgXBP1, 100 nM	24.9
sgRNA knockout: sgXBP1, 1000 nM	28.3
sgRNA knockout: sgXBP1, 10000 nM	5.95
